{"source": "PubChem BioAssay AID504793 (Drosophila RNAi Screening Center, 2011)", "assay": "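Genes required for cells to halt at G2/M after double-strand DNA breaks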 (primary screen)", "cell system": "Drosophila S2R+ cells", "reagent": "long dsRNA against Drosophila genes, about 0.25 µg dsRNA per well", "duration": "4 days of dsRNA, then 4 hours of drug before read-out", "conditions": "doxorubicin 0.5 µM for 4 hours to cause double-strand breaks, in cells also given a low, harmless dose of dsRNA against nbs to sensitise the assay", "measurement": "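Mitotic index as the number of phospho-histone H3-positive cells in each well following doxorubicin, given as raw counts without normalisation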", "reading the numbers": "mitotic cells: higher = more cells in mitosis, weaker G2 arrest", "call rule": "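a call needs confirmation in secondary tests, with other dsRNAs and a check of mitotic timing without damage, not just a high primary count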", "meaning of the calls": "active = confirmed in follow-up tests; inactive = not confirmed", "note": "In all, the deposit lists about 23,000 reagents; this is a random part of those that have a named target and a result. Over the whole deposit, 62 (0.27%) were called active. 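Calls come from follow-up tests whose scores are not deposited, so confirmed genes may have low counts here; counts are not normalised per plate.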 Raw values are not corrected between plates. Unmarked entries are inactive."}
{"gene knocked down": "BomS4", "dsRNA": "DRSC22509", "mitotic cells, replicate 1": 8}
{"gene knocked down": "Vha100-3", "dsRNA": "DRSC05760", "mitotic cells, replicate 1": 3}
{"gene knocked down": "CG7879", "dsRNA": "DRSC08600", "mitotic cells, replicate 1": 5}
{"gene knocked down": "CG7879", "dsRNA": "DRSC25308", "mitotic cells, replicate 1": 12}
{"gene knocked down": "Ripalpha", "dsRNA": "DRSC02657", "mitotic cells, replicate 1": 6}
{"gene knocked down": "mRpL19", "dsRNA": "DRSC16367", "mitotic cells, replicate 1": 8}
{"gene knocked down": "mRpL19", "dsRNA": "DRSC21618", "mitotic cells, replicate 1": 19}
{"gene knocked down": "mRpL19", "dsRNA": "DRSC26104", "mitotic cells, replicate 1": 8}
{"gene knocked down": "iPLA2-VIA", "dsRNA": "DRSC10699", "mitotic cells, replicate 1": 6}
{"gene knocked down": "GstD7", "dsRNA": "DRSC16688", "mitotic cells, replicate 1": 12}
{"gene knocked down": "GstD7", "dsRNA": "DRSC29907", "mitotic cells, replicate 1": 6}
{"gene knocked down": "MtnA", "dsRNA": "DRSC21588", "mitotic cells, replicate 1": 6}

4 entries from above, arranged by “mitotic cells, replicate 1”, high to low.
{"gene knocked down": "CG7879", "dsRNA": "DRSC25308", "mitotic cells, replicate 1": 12}
{"gene knocked down": "mRpL19", "dsRNA": "DRSC16367", "mitotic cells, replicate 1": 8}
{"gene knocked down": "Ripalpha", "dsRNA": "DRSC02657", "mitotic cells, replicate 1": 6}
{"gene knocked down": "CG7879", "dsRNA": "DRSC08600", "mitotic cells, replicate 1": 5}

Next records follow.
{"gene knocked down": "Exd2", "dsRNA": "DRSC16105", "mitotic cells, replicate 1": 5}
{"gene knocked down": "Exd2", "dsRNA": "DRSC25938", "mitotic cells, replicate 1": 2}
{"gene knocked down": "CG13958 (retired record)", "dsRNA": "DRSC02300", "mitotic cells, replicate 1": 4}
{"gene knocked down": "CG13958 (retired record)", "dsRNA": "DRSC28668", "mitotic cells, replicate 1": 2}
{"gene knocked down": "CG4650", "dsRNA": "DRSC02767", "mitotic cells, replicate 1": 6}
{"gene knocked down": "CG5174", "dsRNA": "DRSC06920", "mitotic cells, replicate 1": 6}
{"gene knocked down": "CG5174", "dsRNA": "DRSC28048", "mitotic cells, replicate 1": 7}
{"gene knocked down": "CG32344", "dsRNA": "DRSC08578", "mitotic cells, replicate 1": 5}
{"gene knocked down": "heix", "dsRNA": "DRSC03542", "mitotic cells, replicate 1": 2}
{"gene knocked down": "CG7794", "dsRNA": "DRSC16313", "mitotic cells, replicate 1": 19}
{"gene knocked down": "CG7379", "dsRNA": "DRSC16237", "mitotic cells, replicate 1": 10}
{"gene knocked down": "CG7379", "dsRNA": "DRSC24324", "mitotic cells, replicate 1": 15}
{"gene knocked down": "msi", "dsRNA": "DRSC17003", "mitotic cells, replicate 1": 6}
{"gene knocked down": "foi", "dsRNA": "DRSC10719", "mitotic cells, replicate 1": 9}
{"gene knocked down": "foi", "dsRNA": "DRSC29596", "mitotic cells, replicate 1": 2}
{"gene knocked down": "ca", "dsRNA": "DRSC15305", "mitotic cells, replicate 1": 4}
{"gene knocked down": "ca", "dsRNA": "DRSC15306", "mitotic cells, replicate 1": 8}
{"gene knocked down": "ca", "dsRNA": "DRSC16314", "mitotic cells, replicate 1": 11}
{"gene knocked down": "Nurf-38", "dsRNA": "DRSC04629", "mitotic cells, replicate 1": 9}
{"gene knocked down": "Nurf-38", "dsRNA": "DRSC26858", "mitotic cells, replicate 1": 4}
{"gene knocked down": "Dlip2", "dsRNA": "DRSC12346", "mitotic cells, replicate 1": 2}
{"gene knocked down": "Ih", "dsRNA": "DRSC07445", "mitotic cells, replicate 1": 10}
{"gene knocked down": "Ih", "dsRNA": "DRSC24809", "mitotic cells, replicate 1": 8}
